According to publication doi:10.1101/2020.10.21.348805 (bioRxiv, 2020):

Key:
[1] = target: T1, OsDMI3 (pGBKT7-OsDMI3) (rice (Oryza sativa)) (UniProt Q6AVM3); experiment: two-hybrid
T1 sequence: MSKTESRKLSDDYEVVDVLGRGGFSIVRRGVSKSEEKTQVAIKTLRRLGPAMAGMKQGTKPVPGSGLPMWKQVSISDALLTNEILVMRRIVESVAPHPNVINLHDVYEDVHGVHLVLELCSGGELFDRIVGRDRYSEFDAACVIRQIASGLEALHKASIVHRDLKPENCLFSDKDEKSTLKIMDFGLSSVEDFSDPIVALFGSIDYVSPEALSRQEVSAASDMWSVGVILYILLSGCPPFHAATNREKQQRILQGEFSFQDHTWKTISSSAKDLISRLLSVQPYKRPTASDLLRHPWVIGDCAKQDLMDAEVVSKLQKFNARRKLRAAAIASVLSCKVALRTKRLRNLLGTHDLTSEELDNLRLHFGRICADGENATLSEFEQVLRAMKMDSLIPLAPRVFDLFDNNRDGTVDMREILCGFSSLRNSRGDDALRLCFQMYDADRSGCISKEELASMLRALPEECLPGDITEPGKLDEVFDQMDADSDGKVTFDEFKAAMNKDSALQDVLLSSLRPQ

[2] = target: T2, OsDMI3 split-YFP fusion for BiFC (rice (Oryza sativa)) (UniProt Q6AVM3); experiment: split reporter
T2 sequence: T1 sequence

[3] = target: T3, OsDMI3 in pC1300-cLUC (LCI) (rice (Oryza sativa)) (UniProt Q6AVM3); experiment: split reporter
T3 sequence: T1 sequence

[4] = target: T4, EF hands domain (337 to 516 amino acids) of OsDMI3, LCI construct (rice (Oryza sativa)) (UniProt Q6AVM3); experiment: split reporter
T4 sequence: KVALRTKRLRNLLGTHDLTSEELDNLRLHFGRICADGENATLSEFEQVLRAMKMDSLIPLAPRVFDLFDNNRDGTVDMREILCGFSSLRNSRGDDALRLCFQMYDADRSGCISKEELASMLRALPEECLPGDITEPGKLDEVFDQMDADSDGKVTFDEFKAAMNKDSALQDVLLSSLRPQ

[5] = target: T5, OsDMI3-Myc (rice (Oryza sativa)) (UniProt Q6AVM3); experiment: co-IP
T5 sequence: T1 sequence

[6] = target: T6, EF hands domain (337 to 516 amino acids) of OsDMI3, Y2H construct (rice (Oryza sativa)) (UniProt Q6AVM3); experiment: two-hybrid
T6 sequence: T4 sequence

[7] = target: T7, GST-OsDMI3 (rice (Oryza sativa)) (UniProt Q6AVM3); experiment: pull-down
T7 sequence: T1 sequence

binding [1]	Substance	binding [3]	other results
binds	OsMKK1^T25A, Y2H construct (rice (Oryza sativa)) (enzyme)	–	–
–	OsMKK1 split-YFP fusion for BiFC (rice (Oryza sativa)) (enzyme)	–	binding [2]: binds
–	OsMKK1 in pC1300-nLUC (LCI) (rice (Oryza sativa)) (enzyme)	binds	binding [4]: binds
–	OsMKK1^T25D, LCI construct (rice (Oryza sativa)) (enzyme)	binds	–
–	OsMKK10-2, BiFC construct (rice (Oryza sativa)) (enzyme)	–	binding [2]: no binding
no binding	OsMKK10-2, Y2H construct (rice (Oryza sativa)) (enzyme)	–	–
binds	OsMKK1^T25D, Y2H construct (rice (Oryza sativa)) (enzyme)	–	–
–	OsMKK1-Flag (rice (Oryza sativa)) (enzyme)	–	binding [5]: binds
binds	OsMKK1 (pGADT7-OsMKK1) (rice (Oryza sativa)) (enzyme)	–	binding [6]: binds
–	His-OsMKK1 (rice (Oryza sativa)) (enzyme)	–	binding [7]: binds
–	OsMKK1^T25A, LCI construct (rice (Oryza sativa)) (enzyme)	binds	–
binds	N-terminus domain (1 to 65 amino acids) of OsMKK1, Y2H construct (rice (Oryza sativa)) (domain or fragment)	–	–
–	N-terminus domain (1 to 65 amino acids) of OsMKK1, LCI construct (rice (Oryza sativa)) (domain or fragment)	binds	–

Results are given in words; binding and its absence hold for the method and conditions named. Binding calls can cover weak binding; strength is not graded here. For part of these data: Where a sequence is shown, tags or fusion partners need not be part of it. For part of these data: In cells and extracts the contact can be indirect.
